# According to US20220211681A1, “COMPOSITIONS AND METHODS FOR PREVENTING INFLAMMATORY CONDITIONS” (Trustees of Tufts College, priority 2019, published 2022):
# Assay: Final body weight, body composition (MRI) and general observation of HFD-fed, AOM-treated FVB mice
# Type: in vivo
# Conditions: mean ± SE
smiles,measurement,setting,value
"Cc1ncc(CO)c(CO)c1O.Cl [B6, pyridoxine hydrochloride]",% Fat Mass,MRI at 21 weeks after arrival,32 ± 1.37 ^ab %
same,% Lean Mass,MRI at 21 weeks after arrival,64 ± 1.29 ^ab %
same,Final body weight (g),"agent in diet (CUR 0.2% w/w, B6 24 mg/kg)",36.11 ± 0.69 ^ab g
